The values that follow come from US20110098242A1, “Methods and Compositions for Diagnosing and Treating Cervical Intraepithelial Neoplasia and Cervical Cancer” (priority 2008, published 2011).

Chains of the proteins cited; added tags and fusions are not shown. Residues count along the entry.
UniProt P07711, residues 114-333: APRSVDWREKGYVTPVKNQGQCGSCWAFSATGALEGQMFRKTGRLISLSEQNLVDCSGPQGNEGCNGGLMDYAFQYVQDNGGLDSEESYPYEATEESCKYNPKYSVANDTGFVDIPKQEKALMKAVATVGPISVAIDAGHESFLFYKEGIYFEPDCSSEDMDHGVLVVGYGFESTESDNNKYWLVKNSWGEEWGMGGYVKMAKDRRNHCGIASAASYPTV

These are yes or no findings as the source states them, for the method shown. In cells and extracts the contact can be indirect. Some results given as binding are weak or reduced against the parent protein; the word gives no strength. Tags and fused reporters may be left off the sequences shown.

This experiment addresses cathepsin L (UniProt P07711). The experiment is described as follows: co-immunoprecipitation with anti-FLAG antibody from transfected HeLa cell lysates, Western blot; wild type is the reference. On the technique in general: Immunoblotting shows a protein as a band on a membrane.

B1: cystatin E/M protein (wild type, human), expressed from plasmid p3XFLAG-CMV-10 in transfected HeLa cells (protein, not shown: small tags and cut ends)
chain: RPQERMVGELRDLSPDDPQVQKAAQAAVASYNMGSNSIYYFRDTHIIKAQSQLVAGIKYFLTMEMGSTDCRKTRVTGDHVDLTTCPLAAGAQQEKLRCDFEVLVVPWQNSSQLLKHNCVQM
Take B1: the binding entry was “binds”.
